The text below walks through data of patent US20240009436A1, “LOCALIZED […] OF […] […] AGENTS USING FOCUSED ULTRASOUND” (priority 2020, published 2024).

This data set is described as follows: Spreading/diffusion of muscimol in rat brain (estimates and literature). Conditions: within 20 mins, interstitial space.

As to `NCc1cc(=O)[nH]o1` [muscimol], the “diffusion distance in tissue” value was ≤ 1 mm.
